Source: patent US20110160280A1, “CANCER-RELATED GENES, CDCA5, EPHA7, STK31 AND WDHD1” (Oncotherapy Science, Inc., priority 2007, published 2011)
No constants are given. Whether binding was seen depends on the method and setting. Some entries that bind do so weakly or less than the wild type.

Protein sequences, listed by entry. Tags and fused reporters are not part of them. Lines headed by an entry give the natural chain unless they say otherwise; changes in a name come on top.
UniProt P06493: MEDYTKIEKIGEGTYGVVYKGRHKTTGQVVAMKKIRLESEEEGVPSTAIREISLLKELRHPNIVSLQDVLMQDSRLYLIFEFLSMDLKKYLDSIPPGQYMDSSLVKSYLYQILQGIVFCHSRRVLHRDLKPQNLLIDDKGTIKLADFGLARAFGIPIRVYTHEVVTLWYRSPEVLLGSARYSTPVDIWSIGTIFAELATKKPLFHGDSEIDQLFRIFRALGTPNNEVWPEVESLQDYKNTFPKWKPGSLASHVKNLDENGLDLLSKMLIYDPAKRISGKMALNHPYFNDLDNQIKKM
UniProt P28482: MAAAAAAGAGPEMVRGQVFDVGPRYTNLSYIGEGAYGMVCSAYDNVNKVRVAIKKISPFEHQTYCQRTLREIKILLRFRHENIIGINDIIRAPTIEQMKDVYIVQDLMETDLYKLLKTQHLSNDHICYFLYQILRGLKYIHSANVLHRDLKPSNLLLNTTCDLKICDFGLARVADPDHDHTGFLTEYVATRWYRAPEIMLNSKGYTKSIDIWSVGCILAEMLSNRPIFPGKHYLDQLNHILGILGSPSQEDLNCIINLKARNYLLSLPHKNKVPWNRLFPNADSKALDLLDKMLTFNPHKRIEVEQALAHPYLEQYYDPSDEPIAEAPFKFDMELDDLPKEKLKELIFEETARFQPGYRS
UniProt Q96FF9: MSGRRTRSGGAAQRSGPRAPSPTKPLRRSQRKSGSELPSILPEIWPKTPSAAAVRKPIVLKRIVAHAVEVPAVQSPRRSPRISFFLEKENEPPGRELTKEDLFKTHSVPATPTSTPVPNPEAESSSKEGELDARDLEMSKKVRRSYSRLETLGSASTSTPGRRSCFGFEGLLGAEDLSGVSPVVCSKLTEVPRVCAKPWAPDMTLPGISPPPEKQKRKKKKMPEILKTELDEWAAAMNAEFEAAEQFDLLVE

Key:
[1] = molecular target: CDC2 (BioLabs) (Homo sapiens (Human)) (UniProt P06493); test: interaction stated on the basis of kinase assays; no separate binding assay reported
[2] = molecular target: ERK2 (Upstate) (UniProt P28482); test: as above

binding [1]: binds
binding [2]: binds
Substance: full-length recombinant GST-CDCA5 (pGEX-6p-1/CDCA5 cleaved with Precision Protease) (from UniProt Q96FF9 1-252)
